Source: the supplement of paper PMC12819154, “High-throughput peptide-centric local stability assay extends protein–ligand identification to membrane proteins, tissues and bacteria” (Nature Structural & Molecular Biology, 2025)
This is one part of the list. Most values lie at the level of the controls, where differences are scatter.

Chains of the proteins cited; added tags and fusions are not shown. Lines headed by an entry give the natural chain unless they say otherwise; changes in a name come on top.
UniProt P0AG14: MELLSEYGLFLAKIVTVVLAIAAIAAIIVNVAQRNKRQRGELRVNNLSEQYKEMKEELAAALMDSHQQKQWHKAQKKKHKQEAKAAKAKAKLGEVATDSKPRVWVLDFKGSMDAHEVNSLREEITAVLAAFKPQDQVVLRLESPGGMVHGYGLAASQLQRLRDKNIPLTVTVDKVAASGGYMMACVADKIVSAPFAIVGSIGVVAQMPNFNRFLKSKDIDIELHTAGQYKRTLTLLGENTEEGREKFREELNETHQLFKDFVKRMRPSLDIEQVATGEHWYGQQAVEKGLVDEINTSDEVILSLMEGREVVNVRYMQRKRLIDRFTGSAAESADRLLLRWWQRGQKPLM
UniProt P0ADV7: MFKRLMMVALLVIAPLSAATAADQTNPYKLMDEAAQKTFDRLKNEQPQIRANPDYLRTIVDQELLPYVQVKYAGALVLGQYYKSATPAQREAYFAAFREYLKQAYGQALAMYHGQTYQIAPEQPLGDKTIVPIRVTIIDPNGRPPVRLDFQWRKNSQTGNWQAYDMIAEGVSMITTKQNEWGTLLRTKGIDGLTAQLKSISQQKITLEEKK
UniProt P0AFP2: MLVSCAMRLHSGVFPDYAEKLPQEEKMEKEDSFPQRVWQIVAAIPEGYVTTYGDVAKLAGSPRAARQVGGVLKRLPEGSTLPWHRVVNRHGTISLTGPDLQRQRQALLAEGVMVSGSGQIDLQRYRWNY
UniProt P0AEG4: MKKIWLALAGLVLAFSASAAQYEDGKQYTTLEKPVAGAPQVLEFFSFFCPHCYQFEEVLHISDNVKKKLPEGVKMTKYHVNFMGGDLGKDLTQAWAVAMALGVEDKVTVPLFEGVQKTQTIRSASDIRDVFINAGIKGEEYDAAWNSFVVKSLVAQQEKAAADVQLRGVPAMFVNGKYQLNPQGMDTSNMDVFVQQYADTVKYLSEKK
UniProt P0AD42: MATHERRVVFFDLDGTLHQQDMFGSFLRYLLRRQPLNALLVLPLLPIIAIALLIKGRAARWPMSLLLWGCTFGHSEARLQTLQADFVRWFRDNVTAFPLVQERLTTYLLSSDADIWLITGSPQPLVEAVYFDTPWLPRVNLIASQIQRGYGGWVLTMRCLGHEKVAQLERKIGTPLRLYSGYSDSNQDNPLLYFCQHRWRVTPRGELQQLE
UniProt P0ADM4: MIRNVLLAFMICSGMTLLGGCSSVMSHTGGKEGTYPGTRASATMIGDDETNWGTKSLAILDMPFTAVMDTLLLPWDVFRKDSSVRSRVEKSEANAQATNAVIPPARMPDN
UniProt P0ADP7: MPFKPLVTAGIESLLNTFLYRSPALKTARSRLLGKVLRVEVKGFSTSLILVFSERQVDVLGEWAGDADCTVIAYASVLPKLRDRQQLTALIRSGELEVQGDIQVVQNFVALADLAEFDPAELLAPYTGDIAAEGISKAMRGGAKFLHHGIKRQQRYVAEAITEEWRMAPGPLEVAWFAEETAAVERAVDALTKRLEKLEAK
UniProt P0AEH3: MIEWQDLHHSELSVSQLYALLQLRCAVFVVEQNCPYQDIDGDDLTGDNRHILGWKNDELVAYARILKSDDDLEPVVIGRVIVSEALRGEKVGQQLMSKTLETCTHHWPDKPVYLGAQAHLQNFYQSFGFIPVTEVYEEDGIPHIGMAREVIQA
UniProt P0AED5: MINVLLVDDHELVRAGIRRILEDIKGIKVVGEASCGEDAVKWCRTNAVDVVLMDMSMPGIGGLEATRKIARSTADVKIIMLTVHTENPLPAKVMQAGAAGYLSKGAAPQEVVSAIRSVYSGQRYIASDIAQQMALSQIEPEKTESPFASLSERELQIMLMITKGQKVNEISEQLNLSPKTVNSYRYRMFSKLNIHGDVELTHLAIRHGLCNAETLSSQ
UniProt P0AFR0: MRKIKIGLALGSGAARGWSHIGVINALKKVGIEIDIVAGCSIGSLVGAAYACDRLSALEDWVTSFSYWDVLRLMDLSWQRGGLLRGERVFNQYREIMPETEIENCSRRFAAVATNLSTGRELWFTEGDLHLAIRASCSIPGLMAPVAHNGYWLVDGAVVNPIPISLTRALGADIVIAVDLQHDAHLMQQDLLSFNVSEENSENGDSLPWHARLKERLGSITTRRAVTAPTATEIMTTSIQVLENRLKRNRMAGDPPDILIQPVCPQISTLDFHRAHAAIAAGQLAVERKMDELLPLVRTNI
UniProt P0AFK9: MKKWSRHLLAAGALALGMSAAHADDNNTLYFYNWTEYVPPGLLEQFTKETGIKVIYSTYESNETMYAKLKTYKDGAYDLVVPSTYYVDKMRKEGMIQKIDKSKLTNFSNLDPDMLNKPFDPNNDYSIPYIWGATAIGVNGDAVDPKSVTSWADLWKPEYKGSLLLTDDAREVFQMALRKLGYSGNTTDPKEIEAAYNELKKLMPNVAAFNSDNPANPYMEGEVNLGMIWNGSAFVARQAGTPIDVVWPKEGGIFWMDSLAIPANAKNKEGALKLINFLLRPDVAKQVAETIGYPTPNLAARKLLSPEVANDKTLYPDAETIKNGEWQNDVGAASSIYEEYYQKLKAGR
UniProt P0ADD5: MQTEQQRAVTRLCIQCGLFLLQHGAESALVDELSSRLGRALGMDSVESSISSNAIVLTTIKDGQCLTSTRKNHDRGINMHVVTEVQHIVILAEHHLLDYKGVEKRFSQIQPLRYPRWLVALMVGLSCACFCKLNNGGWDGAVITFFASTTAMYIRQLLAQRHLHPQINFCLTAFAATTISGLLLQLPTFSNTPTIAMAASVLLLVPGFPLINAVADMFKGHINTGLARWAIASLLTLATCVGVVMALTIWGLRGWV
UniProt P0AFZ1: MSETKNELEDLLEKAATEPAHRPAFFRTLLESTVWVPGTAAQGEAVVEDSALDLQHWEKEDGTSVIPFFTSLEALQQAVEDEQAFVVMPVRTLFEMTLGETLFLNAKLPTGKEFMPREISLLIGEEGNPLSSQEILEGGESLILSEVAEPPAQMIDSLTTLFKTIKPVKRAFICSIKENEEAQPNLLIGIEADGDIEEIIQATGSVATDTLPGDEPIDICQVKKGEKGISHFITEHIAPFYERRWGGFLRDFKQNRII
UniProt P0AEJ4: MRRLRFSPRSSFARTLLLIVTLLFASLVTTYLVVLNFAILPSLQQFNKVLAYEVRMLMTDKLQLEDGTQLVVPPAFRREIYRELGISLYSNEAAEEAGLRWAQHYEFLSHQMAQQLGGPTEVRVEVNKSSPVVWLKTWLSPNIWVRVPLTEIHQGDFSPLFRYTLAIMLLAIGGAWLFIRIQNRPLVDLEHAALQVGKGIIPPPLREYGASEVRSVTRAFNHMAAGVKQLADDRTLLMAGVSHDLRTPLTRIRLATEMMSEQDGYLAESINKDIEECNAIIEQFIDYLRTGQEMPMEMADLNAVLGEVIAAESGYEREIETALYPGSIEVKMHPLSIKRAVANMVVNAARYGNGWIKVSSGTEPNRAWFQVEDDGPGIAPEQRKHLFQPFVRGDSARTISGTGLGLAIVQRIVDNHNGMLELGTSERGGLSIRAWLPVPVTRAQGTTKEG
UniProt P0AG16: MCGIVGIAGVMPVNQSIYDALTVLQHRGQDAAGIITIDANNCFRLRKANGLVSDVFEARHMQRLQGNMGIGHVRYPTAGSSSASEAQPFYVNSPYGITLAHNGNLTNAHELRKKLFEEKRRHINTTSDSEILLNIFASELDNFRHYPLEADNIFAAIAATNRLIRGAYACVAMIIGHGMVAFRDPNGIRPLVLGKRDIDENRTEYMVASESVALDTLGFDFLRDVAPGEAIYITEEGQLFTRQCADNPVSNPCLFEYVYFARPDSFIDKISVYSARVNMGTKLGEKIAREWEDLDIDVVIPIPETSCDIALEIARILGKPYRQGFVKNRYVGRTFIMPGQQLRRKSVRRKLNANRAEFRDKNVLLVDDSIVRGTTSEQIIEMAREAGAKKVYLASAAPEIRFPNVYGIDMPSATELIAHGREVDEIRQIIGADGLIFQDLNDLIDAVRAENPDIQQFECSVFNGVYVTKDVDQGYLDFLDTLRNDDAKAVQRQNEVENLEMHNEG
UniProt P0AEM4: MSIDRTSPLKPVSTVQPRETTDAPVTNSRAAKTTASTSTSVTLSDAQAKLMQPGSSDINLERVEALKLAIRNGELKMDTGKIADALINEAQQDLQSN
UniProt P0AD57: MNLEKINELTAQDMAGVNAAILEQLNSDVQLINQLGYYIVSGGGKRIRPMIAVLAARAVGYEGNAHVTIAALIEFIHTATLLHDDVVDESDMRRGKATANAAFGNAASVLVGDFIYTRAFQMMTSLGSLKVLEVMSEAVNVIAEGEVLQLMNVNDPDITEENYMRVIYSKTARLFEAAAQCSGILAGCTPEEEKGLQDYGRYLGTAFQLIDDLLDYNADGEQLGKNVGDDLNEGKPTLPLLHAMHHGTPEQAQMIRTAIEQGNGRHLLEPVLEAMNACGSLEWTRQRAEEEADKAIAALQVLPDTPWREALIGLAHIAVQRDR
UniProt P0AEC3: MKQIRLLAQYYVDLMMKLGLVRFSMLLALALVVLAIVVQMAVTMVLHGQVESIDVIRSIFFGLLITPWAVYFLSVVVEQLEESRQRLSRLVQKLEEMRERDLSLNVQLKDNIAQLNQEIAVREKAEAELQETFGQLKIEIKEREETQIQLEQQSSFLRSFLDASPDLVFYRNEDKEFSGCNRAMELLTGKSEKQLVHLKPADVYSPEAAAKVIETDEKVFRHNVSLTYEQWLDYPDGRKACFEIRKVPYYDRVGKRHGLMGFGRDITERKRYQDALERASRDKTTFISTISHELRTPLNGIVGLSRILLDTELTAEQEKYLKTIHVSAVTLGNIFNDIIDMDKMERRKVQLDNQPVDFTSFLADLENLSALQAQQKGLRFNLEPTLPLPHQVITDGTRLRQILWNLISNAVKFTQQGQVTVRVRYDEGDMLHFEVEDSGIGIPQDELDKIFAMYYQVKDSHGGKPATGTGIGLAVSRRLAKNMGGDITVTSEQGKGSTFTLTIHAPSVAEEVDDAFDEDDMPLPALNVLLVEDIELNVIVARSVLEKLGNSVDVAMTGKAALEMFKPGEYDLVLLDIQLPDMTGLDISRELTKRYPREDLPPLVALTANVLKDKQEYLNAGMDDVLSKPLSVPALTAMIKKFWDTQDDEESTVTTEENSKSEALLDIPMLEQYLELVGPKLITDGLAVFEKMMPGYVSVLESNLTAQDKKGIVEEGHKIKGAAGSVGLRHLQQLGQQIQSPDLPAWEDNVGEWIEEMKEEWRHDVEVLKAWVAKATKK
UniProt P0AFU4: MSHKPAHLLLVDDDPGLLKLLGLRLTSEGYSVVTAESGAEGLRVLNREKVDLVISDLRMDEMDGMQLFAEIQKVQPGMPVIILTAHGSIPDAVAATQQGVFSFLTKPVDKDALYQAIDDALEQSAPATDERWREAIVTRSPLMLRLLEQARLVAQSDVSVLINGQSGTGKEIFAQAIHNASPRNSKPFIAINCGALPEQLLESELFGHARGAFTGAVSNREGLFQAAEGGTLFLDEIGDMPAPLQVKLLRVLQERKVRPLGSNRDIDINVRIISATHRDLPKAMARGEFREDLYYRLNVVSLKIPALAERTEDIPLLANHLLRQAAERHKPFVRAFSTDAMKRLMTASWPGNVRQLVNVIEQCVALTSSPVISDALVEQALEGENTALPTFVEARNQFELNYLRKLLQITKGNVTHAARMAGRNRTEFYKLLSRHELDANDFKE
UniProt P0AEX3: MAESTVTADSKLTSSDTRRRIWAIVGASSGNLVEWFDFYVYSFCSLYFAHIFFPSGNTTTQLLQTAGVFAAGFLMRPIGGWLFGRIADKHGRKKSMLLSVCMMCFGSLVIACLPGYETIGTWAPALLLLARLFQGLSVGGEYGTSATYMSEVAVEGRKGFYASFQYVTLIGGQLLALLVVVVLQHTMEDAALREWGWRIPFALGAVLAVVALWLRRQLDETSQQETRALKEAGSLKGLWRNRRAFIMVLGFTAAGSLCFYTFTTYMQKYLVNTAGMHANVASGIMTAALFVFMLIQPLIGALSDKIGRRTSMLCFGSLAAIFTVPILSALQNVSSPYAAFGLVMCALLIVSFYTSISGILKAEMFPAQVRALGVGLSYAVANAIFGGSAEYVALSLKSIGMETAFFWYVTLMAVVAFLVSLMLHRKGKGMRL
UniProt P0AF96: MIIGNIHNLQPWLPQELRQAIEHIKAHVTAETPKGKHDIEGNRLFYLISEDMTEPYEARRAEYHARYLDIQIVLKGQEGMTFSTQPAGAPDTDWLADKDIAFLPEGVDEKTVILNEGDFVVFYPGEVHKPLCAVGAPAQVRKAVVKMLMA

Compound: CC1(C)S[C@@H]2[C@H](NC(=O)[C@H](N)c3ccccc3)C(=O)N2[C@H]1C(=O)O [ampicillin]
Assay: log2 fold change of tryptic peptide abundance, ligand vs vehicle (limited proteolysis) (log2 ratio); higher = more trypsin-susceptible (destabilized)
Settings: ligand concentration: 10 uM; sample: E. coli crude lysate

Target | log2 fold change
UniProt P0AG14 (peptide sequence: EKFREELNETHQLFK, peptide start residue: 245) | -0.588
UniProt P0ADV7 (peptide sequence: YAGALVLGQYYK, peptide start residue: 72) | 0.582
UniProt P0AFP2 (peptide sequence: RLPEGSTLPWHR, peptide start residue: 74) | 0.18
UniProt P0AEG4 (peptide sequence: KKLPEGVK, peptide start residue: 67) | 0.382
UniProt P0AD42 (peptide sequence: GYGGWVLTMR, peptide start residue: 149) | 0.291
UniProt P0ADM4 (peptide sequence: VEKSEANAQATNAVIPPAR, peptide start residue: 88) | -0.123
UniProt P0ADP7 (peptide sequence: QQLTALIR, peptide start residue: 85) | -0.0393
UniProt P0AEH3 (peptide sequence: HILGWKNDELVAYAR, peptide start residue: 50) | -0.447
UniProt P0AED5 (peptide sequence: ELQIMLMITK, peptide start residue: 154) | -0.316
UniProt P0AFR0 (peptide sequence: GWSHIGVINALKK, peptide start residue: 17) | 0.353
UniProt P0AFK9 (peptide sequence: SVTSWADLWKPEYK, peptide start residue: 147) | -0.418
UniProt P0ADD5 (peptide sequence: DGQCLTSTR, peptide start residue: 62) | 0.138
UniProt P0AFZ1 (peptide sequence: GISHFITEHIAPFYERR, peptide start residue: 228) | -0.137
UniProt P0AEJ4 (peptide sequence: AFNHMAAGVK, peptide start residue: 219) | -0.632
UniProt P0AG16 (peptide sequence: LQGNMGIGHVR, peptide start residue: 64) | 0.344
UniProt P0AEM4 (peptide sequence: LMQPGSSDINLERVEALK, peptide start residue: 50) | -0.187
UniProt P0AD57 (peptide sequence: QRAEEEADK, peptide start residue: 286) | -0.459
UniProt P0AEC3 (peptide sequence: KRYQDALER, peptide start residue: 270) | 0.94
UniProt P0AFU4 (peptide sequence: NQFELNYLR, peptide start residue: 396) | -0.301
UniProt P0AEX3 (peptide sequence: ALKEAGSLK, peptide start residue: 228) | -0.118
UniProt P0AF96 (peptide sequence: AHVTAETPK, peptide start residue: 26) | 0.0463

Reprinted at random: 2 records from the list, in no set order.
Target | log2 fold change
UniProt P0AEG4 (peptide sequence: KKLPEGVK, peptide start residue: 67) | 0.382
UniProt P0AEH3 (peptide sequence: HILGWKNDELVAYAR, peptide start residue: 50) | -0.447
